Data on 1 compound can be found in patent US20110281950A1, “COMPOSITIONS AND METHODS FOR REDUCING PROLIFERATION AND VIABILITY OF LYMPHOBLASTOID CELLS” (priority 2010, published 2011).

The test has as its system Purified NK cells. The test is described as follows: NK cell 51Cr release cytotoxicity assay, continuous treatment or washout (Example 7). The settings on record: SAHA 100, 500, 1000 nM; valproate 1, 2 mM. The test is classed as cell-based. An excerpt:
Purified NK cells in DMSO were used as a control. The cells were subsequently analyzed in an IFNγ ELISPOT assay or a ^51Cr release cytotoxicity assay.

Consider `O=C(CCCCCCC(=O)Nc1ccccc1)NO` [SAHA, suberoylanilide hydroxamic acid, reference compound], for which the ADCC inhibition entry is recorded as “no significant ADCC inhibition”.
